The list shows a part of the results.
Assays:
Assay in all cases: log2 fold change, soluble protein after heating vs DMSO (PISA); higher = thermal stabilisation; K562 lysate, 10 uM; active = over 0.2 and 3.5 SD of the protein, either way, in both replicates (recomputed)
vemurafenib = compound: CCCS(=O)(=O)Nc1ccc(F)c(C(=O)c2c[nH]c3ncc(-c4ccc(Cl)cc4)cc23)c1F [vemurafenib]
How it was run: (§1)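 A 30 min treatment with 10 μM compound was applied to crude K562 extract at 1 mg/mL protein in PBS pH 7.4 with 1 mM MgCl2. Heating for 3 min spanned 48°C-58°C, after which aliquots were pooled, adjusted to 0.5% NP-40 at 4°C and spun at 21,000xg for 90 min. TMTpro 16plex LC-MS/MS of the supernatant, with channel sums equalised, gave values recorded as log-two fold change in thermal stability against solvent controls, from duplicates.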

Chains of the proteins cited; added tags and fusions are not shown. Lines headed by an entry give the natural chain unless they say otherwise; changes in a name come on top.
UniProt Q96DE9: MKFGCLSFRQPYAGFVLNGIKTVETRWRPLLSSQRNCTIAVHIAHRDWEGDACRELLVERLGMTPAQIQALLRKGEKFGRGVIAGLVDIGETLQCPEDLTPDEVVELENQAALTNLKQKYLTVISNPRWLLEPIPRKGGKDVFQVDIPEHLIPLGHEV
UniProt Q53TN4: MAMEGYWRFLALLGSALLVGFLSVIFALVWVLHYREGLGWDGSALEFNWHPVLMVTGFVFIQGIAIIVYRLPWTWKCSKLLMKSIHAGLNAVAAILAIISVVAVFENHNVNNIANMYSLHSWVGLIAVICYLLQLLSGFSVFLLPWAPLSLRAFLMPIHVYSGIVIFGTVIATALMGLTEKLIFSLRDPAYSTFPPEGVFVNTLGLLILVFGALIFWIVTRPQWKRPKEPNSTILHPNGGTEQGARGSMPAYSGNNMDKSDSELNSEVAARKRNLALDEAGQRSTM
UniProt P00167, whole entry, looked up: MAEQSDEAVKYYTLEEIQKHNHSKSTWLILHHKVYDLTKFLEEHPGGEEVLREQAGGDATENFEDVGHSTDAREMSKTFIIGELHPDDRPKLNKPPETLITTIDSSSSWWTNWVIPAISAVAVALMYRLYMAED
UniProt Q9UKG9: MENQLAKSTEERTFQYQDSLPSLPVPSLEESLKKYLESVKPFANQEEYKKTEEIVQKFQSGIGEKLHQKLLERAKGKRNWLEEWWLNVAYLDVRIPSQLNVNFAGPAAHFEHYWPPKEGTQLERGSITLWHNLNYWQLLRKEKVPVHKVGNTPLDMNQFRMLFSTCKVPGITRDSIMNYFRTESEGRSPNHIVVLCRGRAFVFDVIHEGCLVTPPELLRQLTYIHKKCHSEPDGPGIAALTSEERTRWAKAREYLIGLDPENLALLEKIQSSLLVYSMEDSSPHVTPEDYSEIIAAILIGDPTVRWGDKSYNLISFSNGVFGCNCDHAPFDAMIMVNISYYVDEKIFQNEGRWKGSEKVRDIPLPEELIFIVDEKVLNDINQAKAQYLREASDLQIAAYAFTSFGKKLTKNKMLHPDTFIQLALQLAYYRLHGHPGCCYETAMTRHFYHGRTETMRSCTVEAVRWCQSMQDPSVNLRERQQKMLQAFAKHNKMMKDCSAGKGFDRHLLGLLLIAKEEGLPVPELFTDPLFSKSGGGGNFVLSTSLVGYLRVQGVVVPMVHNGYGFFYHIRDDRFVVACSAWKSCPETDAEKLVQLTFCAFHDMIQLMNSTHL
UniProt Q7LFL8: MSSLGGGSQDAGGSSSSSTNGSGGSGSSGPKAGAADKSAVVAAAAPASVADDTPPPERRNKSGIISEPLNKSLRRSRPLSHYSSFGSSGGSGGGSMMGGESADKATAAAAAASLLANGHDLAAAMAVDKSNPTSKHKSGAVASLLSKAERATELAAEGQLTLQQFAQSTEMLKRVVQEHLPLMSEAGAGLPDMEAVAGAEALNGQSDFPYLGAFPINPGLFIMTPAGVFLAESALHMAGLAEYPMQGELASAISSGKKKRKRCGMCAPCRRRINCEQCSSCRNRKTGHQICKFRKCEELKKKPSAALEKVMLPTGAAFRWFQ
UniProt Q16527: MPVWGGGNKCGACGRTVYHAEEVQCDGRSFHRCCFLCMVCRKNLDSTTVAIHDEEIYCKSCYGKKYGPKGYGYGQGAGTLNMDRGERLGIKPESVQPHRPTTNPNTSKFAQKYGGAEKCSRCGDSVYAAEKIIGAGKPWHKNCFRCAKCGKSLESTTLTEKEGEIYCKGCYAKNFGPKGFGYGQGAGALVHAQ
UniProt H7BZ55: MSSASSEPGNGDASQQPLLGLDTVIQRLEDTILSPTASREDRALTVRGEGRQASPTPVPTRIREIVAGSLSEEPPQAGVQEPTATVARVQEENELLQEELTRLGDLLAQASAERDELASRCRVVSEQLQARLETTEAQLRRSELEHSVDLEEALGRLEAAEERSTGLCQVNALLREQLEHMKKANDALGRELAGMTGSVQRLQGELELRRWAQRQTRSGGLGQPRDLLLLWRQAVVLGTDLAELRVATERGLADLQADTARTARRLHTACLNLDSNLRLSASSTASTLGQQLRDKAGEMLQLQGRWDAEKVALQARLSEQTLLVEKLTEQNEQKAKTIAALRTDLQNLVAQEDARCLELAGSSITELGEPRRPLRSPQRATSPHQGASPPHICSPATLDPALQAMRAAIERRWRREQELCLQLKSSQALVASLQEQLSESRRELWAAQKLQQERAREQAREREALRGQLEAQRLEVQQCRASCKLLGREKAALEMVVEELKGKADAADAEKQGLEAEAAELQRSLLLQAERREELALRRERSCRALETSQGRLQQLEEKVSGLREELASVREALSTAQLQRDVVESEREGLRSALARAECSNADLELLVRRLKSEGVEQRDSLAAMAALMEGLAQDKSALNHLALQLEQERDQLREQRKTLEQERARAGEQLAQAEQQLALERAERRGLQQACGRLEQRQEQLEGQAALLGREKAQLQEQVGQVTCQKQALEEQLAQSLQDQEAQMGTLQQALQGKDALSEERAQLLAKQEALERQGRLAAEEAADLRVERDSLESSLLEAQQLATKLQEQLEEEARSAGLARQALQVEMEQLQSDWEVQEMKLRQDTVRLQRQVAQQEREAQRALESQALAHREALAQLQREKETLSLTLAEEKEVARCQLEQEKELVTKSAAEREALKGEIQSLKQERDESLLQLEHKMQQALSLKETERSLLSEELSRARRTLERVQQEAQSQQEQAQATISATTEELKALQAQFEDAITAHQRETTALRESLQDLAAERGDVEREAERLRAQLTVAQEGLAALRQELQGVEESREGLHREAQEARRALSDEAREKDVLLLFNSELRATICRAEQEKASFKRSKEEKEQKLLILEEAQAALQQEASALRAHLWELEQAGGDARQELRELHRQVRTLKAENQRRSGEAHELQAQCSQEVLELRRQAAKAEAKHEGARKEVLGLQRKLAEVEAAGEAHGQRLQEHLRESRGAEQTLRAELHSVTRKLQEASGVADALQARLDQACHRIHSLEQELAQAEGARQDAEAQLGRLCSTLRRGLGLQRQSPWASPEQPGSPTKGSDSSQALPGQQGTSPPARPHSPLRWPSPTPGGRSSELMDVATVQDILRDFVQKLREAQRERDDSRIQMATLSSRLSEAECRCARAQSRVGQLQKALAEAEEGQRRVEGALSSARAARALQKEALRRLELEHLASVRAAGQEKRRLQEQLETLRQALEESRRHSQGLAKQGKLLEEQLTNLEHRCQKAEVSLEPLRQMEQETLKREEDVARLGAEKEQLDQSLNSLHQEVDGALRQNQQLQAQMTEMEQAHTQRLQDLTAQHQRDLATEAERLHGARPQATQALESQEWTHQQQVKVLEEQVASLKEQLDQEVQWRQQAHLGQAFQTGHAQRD
UniProt P25774, whole entry, looked up: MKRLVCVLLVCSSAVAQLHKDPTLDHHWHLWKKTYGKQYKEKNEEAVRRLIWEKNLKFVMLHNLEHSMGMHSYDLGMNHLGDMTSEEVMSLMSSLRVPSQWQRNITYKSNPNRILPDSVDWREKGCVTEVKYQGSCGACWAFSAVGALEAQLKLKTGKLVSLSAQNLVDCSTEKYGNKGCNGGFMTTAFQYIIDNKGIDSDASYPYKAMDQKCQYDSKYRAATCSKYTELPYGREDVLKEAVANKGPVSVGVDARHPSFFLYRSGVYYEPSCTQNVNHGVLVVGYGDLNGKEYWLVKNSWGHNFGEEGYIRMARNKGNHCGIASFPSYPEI
UniProt Q03060: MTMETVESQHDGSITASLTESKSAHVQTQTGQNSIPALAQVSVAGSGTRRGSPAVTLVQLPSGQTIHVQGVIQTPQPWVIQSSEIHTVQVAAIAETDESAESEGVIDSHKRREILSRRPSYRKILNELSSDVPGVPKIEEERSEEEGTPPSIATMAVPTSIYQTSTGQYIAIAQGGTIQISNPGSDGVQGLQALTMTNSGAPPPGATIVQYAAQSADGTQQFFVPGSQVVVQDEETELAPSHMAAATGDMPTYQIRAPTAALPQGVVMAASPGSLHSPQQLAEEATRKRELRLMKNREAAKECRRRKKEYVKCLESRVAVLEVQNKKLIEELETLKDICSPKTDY
UniProt Q8IWT3: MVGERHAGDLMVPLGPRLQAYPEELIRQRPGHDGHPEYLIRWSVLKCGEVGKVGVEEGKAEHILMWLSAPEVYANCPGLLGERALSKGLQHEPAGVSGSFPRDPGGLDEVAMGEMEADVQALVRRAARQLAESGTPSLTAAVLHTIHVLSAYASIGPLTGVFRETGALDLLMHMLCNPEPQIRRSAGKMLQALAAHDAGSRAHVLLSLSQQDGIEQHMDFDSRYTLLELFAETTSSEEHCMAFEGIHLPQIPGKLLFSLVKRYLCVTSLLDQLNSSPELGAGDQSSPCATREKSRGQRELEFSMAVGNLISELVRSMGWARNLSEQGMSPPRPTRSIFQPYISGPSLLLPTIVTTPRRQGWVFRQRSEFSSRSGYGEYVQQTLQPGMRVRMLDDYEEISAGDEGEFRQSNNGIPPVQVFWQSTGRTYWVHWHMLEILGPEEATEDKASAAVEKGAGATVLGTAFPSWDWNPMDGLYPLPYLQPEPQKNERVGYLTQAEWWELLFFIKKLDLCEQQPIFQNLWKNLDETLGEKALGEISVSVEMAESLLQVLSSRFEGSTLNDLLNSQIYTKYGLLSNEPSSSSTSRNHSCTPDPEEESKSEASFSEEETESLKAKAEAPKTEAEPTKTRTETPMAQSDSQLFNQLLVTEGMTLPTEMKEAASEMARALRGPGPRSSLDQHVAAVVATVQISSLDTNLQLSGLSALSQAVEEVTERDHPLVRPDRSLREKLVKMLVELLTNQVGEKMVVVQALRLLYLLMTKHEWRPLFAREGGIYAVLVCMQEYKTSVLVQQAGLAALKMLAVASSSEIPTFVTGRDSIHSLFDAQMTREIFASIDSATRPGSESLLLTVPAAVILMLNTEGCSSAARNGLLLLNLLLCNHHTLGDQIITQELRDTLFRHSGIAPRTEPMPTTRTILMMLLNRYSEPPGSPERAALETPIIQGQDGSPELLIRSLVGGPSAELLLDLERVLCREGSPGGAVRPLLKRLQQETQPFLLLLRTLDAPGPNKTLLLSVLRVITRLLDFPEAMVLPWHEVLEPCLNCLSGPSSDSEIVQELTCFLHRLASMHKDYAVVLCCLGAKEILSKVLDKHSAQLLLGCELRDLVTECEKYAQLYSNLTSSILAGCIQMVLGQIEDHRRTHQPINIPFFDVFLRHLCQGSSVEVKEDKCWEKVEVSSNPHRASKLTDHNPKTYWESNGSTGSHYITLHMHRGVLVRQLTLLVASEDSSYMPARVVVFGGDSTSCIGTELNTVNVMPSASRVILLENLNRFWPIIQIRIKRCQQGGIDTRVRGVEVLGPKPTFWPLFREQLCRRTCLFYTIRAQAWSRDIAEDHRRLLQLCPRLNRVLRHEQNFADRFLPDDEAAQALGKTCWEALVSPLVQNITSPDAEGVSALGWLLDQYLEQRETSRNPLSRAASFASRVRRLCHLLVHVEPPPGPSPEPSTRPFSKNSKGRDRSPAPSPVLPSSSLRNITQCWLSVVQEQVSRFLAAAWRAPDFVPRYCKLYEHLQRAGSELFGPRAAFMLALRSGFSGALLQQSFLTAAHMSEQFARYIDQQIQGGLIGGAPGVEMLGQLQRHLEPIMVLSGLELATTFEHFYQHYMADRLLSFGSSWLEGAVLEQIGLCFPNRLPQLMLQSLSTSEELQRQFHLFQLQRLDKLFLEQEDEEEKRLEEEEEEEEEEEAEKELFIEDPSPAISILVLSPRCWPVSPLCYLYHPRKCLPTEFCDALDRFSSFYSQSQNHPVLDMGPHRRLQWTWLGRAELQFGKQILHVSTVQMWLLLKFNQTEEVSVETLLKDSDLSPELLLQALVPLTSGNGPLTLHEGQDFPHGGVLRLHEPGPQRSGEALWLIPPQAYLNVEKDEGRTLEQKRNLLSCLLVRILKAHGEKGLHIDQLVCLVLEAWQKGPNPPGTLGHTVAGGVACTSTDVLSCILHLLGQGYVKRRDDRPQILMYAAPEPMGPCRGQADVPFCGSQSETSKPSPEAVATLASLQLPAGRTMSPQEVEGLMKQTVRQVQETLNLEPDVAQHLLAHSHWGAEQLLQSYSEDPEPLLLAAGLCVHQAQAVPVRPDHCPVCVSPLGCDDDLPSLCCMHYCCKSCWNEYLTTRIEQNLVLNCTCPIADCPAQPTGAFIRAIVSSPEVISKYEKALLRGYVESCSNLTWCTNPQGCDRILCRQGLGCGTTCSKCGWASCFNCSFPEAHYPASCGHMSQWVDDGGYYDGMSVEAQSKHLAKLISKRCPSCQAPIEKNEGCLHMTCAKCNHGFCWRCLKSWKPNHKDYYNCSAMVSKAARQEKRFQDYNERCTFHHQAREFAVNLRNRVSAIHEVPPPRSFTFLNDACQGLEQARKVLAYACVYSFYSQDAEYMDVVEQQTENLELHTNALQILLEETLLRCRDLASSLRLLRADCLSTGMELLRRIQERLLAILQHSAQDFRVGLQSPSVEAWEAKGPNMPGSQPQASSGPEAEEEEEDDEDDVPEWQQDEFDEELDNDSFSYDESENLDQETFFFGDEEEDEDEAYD

[1] = compound: CCCS(=O)(=O)Nc1ccc(F)c(C(=O)c2c[nH]c3ncc(Cl)cc23)c1F
How it was run: as §1

barasertib = compound: CCN(CCCOc1ccc2c(Nc3cc(CC(=O)Nc4cccc(F)c4)[nH]n3)ncnc2c1)CCOP(=O)(O)O [barasertib]
How it was run: as §1

[2] = compound: CC[C@@H]1C(=O)N(C)c2cnc(Nc3ccc(C(=O)NC4CCN(C)CC4)cc3OC)nc2N1C1CCCC1
How it was run: as §1

volasertib = compound: CC[C@@H]1C(=O)N(C)c2cnc(Nc3ccc(C(=O)N[C@H]4CC[C@H](N5CCN(CC6CC6)CC5)CC4)cc3OC)nc2N1C(C)C [volasertib]
How it was run: as §1

[3] = compound: CCn1c(C(=O)N(C2CC2)C2CC2)cc2c3c(ncn3C)c(Nc3cc(C)n(C)n3)nc21
How it was run: as §1

[4] = compound: CCn1cc(-c2ccnc3[nH]c(-c4cccc(CN(C)C)c4)cc23)c(-c2ccc(NC(=O)N(C)C)cc2)n1
How it was run: as §1

[5] = compound: CN1CCC(CNc2ccc3ncc(-c4cccc(OC(F)(F)F)c4)n3n2)CC1
How it was run: as §1

sotrastaurin = compound: CN1CCN(c2nc(C3=C(c4c[nH]c5ccccc45)C(=O)NC3=O)c3ccccc3n2)CC1 [sotrastaurin]
How it was run: as §1

saracatinib = compound: CN1CCN(CCOc2cc(OC3CCOCC3)c3c(Nc4c(Cl)ccc5c4OCO5)ncnc3c2)CC1 [saracatinib]
How it was run: as §1

Measured: log2 fold change

CRCP (UniProt O75575)
inactive: vemurafenib 0.024 | [1] 0.03 | barasertib 0.114 | [2] 0.042 | volasertib 0.023 | [3] 0.041 | [4] -0.013 | [5] -0.025 | sotrastaurin 0.017

CXorf40B (UniProt Q96DE9)
inactive: vemurafenib -0.003 | [1] -0.15 | barasertib -0.016 | volasertib 0.244 | [3] 0.067 | [4] 0.001 | [5] -0.067 | saracatinib 0.04 | sotrastaurin 0.037

CRYM (UniProt Q14894)
inactive: vemurafenib -0.28 | [1] 0.021 | barasertib -0.135 | [2] 0.061 | volasertib -0.015 | [3] -0.139 | [4] -0.054 | [5] 0.076 | sotrastaurin 0.081

CYBRD1 (UniProt Q53TN4)
inactive: vemurafenib 0.025 | [1] -0.051 | barasertib -0.051 | volasertib -0.016 | [4] -0.05 | [5] 0.078 | saracatinib -0.066 | sotrastaurin 0.091

CWC27 (UniProt Q6UX04)
inactive: vemurafenib -0.012 | [1] -0.003 | barasertib -0.013 | [2] 0.03 | volasertib 0 | [3] -0.01 | [4] 0.005 | [5] -0.021 | saracatinib 0.003 | sotrastaurin -0.02

CTTNBP2NL (UniProt Q9P2B4)
inactive: vemurafenib -0.011 | [1] -0.024 | barasertib -0.006 | [2] -0.012 | volasertib 0.067 | [3] -0.005 | [4] -0.098 | [5] -0.001 | sotrastaurin 0.018

CYBC1 (UniProt Q9BQA9)
inactive: [1] 0.017 | barasertib 0.057 | [2] -0.003 | volasertib 0.046 | [3] 0.051 | [4] -0.205 | [5] 0.073 | saracatinib -0.032 | sotrastaurin 0.006

CRAMP1 (UniProt Q96RY5)
inactive: vemurafenib 0.053 | [2] 0.123 | saracatinib -0.108

CSNK2A2 (UniProt P19784)
inactive: vemurafenib -0.219 | [1] -0.005 | barasertib -0.044 | [2] -0.031 | volasertib -0.082 | [3] 0.011 | [4] -0.092 | [5] 0.418 | saracatinib 0 | sotrastaurin 0.023

CYB5A (UniProt P00167)
inactive: barasertib 0.169 | [2] 0.183 | [3] 0.023 | [4] -0.167 | [5] 0.074 | saracatinib -0.074 | sotrastaurin -0.084

CSF1 (UniProt P09603)
inactive: [4] -0.078 | [5] -0.03

CRY1 (UniProt Q16526)
inactive: [4] 0.056 | [5] -0.076

CSNK1G1 (UniProt Q9HCP0)
inactive: [1] -0.235 | barasertib 0.01 | volasertib 0.027 | saracatinib -0.001

CSDE1 isoform 3 (UniProt O75534)
inactive: [1] -0.014 | barasertib 0.05 | volasertib -0.193 | [3] 0.113 | [4] -0.064 | [5] -0.104 | sotrastaurin 0.07

CYLD (UniProt Q9NQC7)
inactive: sotrastaurin -0.061

CROT isoform 3 (UniProt Q9UKG9)
inactive: [2] -0.151 | [4] -0.014 | [5] 0.067 | sotrastaurin 0

CTSG (UniProt P08311)
inactive: [3] -0.042 | [4] -0.437 | [5] 0.305 | saracatinib 0.081 | sotrastaurin 0.105

CTNNBIP1 (UniProt Q9NSA3)
inactive: saracatinib -0.089

CST1 (UniProt P01037)
inactive: [2] -0.265 | [3] 0.13 | [4] 0.014 | [5] -0.059 | sotrastaurin -0.06

CXXC5 (UniProt Q7LFL8)
inactive: saracatinib -0.145

CROCCP2 (UniProt Q86T23)
inactive: [1] 0.03 | [2] 0.042 | volasertib -0.098 | sotrastaurin 0.094

CSRP2 (UniProt Q16527)
active: sotrastaurin -0.351
inactive: barasertib 0.078 | [2] 0.052 | [4] 0.09 | [5] 0.126

CSNK1A1 isoform 3 (UniProt P48729)
inactive: [3] -0.199 | saracatinib -0.175

CRIP2 isoform 2 (UniProt P52943)
inactive: [1] -0.04 | barasertib -0.018 | volasertib -0.017 | [3] -0.004 | [4] 0.085 | [5] 0.158 | saracatinib 0.045 | sotrastaurin 0.004

CSNK1G3 isoform 4 (UniProt Q9Y6M4)
inactive: [1] -0.238 | volasertib 0.111

CSGALNACT2 (UniProt Q8N6G5)
inactive: [1] -0.013 | volasertib -0.323 | saracatinib 0.083 | sotrastaurin -0.085

CTDSP1 (UniProt Q9GZU7)
inactive: [3] -0.002 | [4] 0.2 | [5] -0.091 | saracatinib 0.134 | sotrastaurin -0.008

CRLS1 (UniProt Q9UJA2)
inactive: [1] 0.063 | barasertib 0.014 | volasertib 0.005 | [3] 0.017 | [4] 0.022 | [5] -0.301 | sotrastaurin -0.008

CTSF (UniProt Q9UBX1)
inactive: [3] 0.164 | [4] -0.091 | [5] -0.098

CSRNP2 (UniProt Q9H175)
inactive: [3] 0.101 | saracatinib -0.049

CYFIP1, A0A0G2JRV9
inactive: [1] -0.089 | volasertib -0.069

Two successive entries from above:
CRLS1 (UniProt Q9UJA2)
inactive: [1] 0.063 | barasertib 0.014 | volasertib 0.005 | [3] 0.017 | [4] 0.022 | [5] -0.301 | sotrastaurin -0.008

CTSF (UniProt Q9UBX1)
inactive: [3] 0.164 | [4] -0.091 | [5] -0.098

Additional results follow.

CROCC2 (UniProt H7BZ55)
inactive: [1] -0.011 | barasertib -0.262 | [2] -0.05 | volasertib -0.034 | saracatinib 0.074 | sotrastaurin -0.051

CTSS (UniProt P25774)
inactive: [2] -0.19 | [4] -0.058 | [5] 0.227 | saracatinib -0.058

CTDNEP1 (UniProt O95476)
inactive: saracatinib -0.032 | sotrastaurin 0.08

CTDSP1 isoform 3 (UniProt Q9GZU7)
inactive: barasertib 0.066

CSAD isoform 3 (UniProt Q9Y600)
active: barasertib 0.456
inactive: [3] 0.001 | sotrastaurin -0.003

CTCFL isoform 7 (UniProt Q8NI51)
inactive: barasertib 0.108 | [2] 0 | sotrastaurin -0.097

CREM isoform 1 (UniProt Q03060)
inactive: [1] -0.028 | barasertib -0.075 | volasertib -0.011 | [3] -0.094 | [4] -0.018 | [5] 0.022 | saracatinib 0.013 | sotrastaurin 0.035

CS (UniProt F8VU34)
inactive: [1] 0.184 | barasertib 0.214 | volasertib 0.11 | [3] 0.061 | saracatinib 0.094

CRISP3 isoform 3 (UniProt P54108)
inactive: [3] 0.087 | [4] 0.21 | [5] -0.175 | saracatinib -0.25

CSNK2A1, A0A2R8Y4D6
inactive: [1] 0.107 | volasertib -0.325

CUL9 (UniProt Q8IWT3)
inactive: [1] -0.05 | barasertib 0.194 | volasertib 0.044 | [4] -0.191 | [5] -0.309 | sotrastaurin -0.032

From the supplement of paper PMC10849652
